Source: patent US20200179369A1, “TREATMENT OF DIABETIC NEPHROPATHY” (TAKEDA GMBH, priority 2015, published 2020)
At least one compound was matched to its structure with a doubt left.

Experiments:
Assay type in all cases: cell-based
[1] = system: plasminogen activator inhibitor-1 (PAI-1) mRNA; assay: TGF-β-induced mRNA expression of plasminogen activator inhibitor-1 (PAI-1) in human mesangial cells; details: forskolin alone 1 μM, TGF-β 3 ng/mL, 6 h
Protocol: (§1) Human mesangial cells were purchased from DS Pharma Biomedical (US). Compound A was obtained from Takeda GmbH, Konstanz, Germany. Forskolin and dimethyl sulfoxide (DMSO) were purchased from Wako Pure Chemical Industries, Ltd (Japan). Recombinant human TGF-β was purchased from R&D systems (USA).
(§2) On day 0, human mesangial cells were seeded at a cell density of 2×10^5 cells/well in CSC complete medium (Cell Systems, USA) on type 1 collagen-coated 24-well plate (AGC TECHNO GLASS Co. Ltd., Japan) in an atmosphere of 95% air and 5% CO2 at 37° C. On day 1, the cells were serum starved with CMC medium which is not containing serum and growth factors. On day 2, Compound A at final concentrations of 0.001, 0.01, 0.1, 1 and 10 μM or DMSO (control) was added to the culture medium. […] For the measurement of mRNA levels of type 1 collagen α1 chain and fibronectin, total RNA isolated at 24 hours after forskolin/TGF-β stimulation was used. mRNA expression levels were measured by quantitative real-time RT-PCR methods with TaqMan gene expression master mix and ABI PRISM 9700 (Life Technologies, USA) with target mRNA specific primer and probe sets [Human connective tissue growth factor (Hs1026927_g1); Human plasminogen activator inhibitor-1 (Hs00167155_m1); Human type 1 collagenal chain (Hs00164004_m1); Human fibronectin (HS00365052_m1); Humanglyceraldehyde 3-phosphate dehydrogenase (HS2758991_g1)]. […]

[2] = system: connective tissue growth factor (CTGF) mRNA; assay: TGF-β-induced mRNA expression of connective tissue growth factor (CTGF) in human mesangial cells; details: forskolin alone 1 μM, TGF-β 3 ng/mL, 6 h
Protocol: as §1, §2

[3] = system: type 1 collagen α1 chain mRNA; assay: TGF-β-induced mRNA expression of type 1 collagen α1 chain in human mesangial cells; details: forskolin alone 1 μM, TGF-β 3 ng/mL, 24 h
Protocol: as §1, §2

fibronectin mRNA = assay: TGF-β-induced mRNA expression of fibronectin in human mesangial cells; details: forskolin alone 1 μM, TGF-β 3 ng/mL, 24 h
Protocol: as §1, §2

human mesangial cells = assay: Intracellular cAMP level in human mesangial cells (AlphaScreen cAMP functional assay); details: forskolin alone, 1 μM
Protocol: as §1
On day 0, human mesangial cells were seeded at a cell density of 2×10^5 cells/well in CSC complete medium (Cell Systems, USA) on type 1 collagen-coated 24-well plate (AGC TECHNO GLASS Co. Ltd., Japan) in an atmosphere of 95% air and 5% CO2 at 37° C. On day 1, the cells were serum starved with CSC medium which is not containing serum and growth factors. On day 2, Compound A at final concentrations of 0.001, 0.01, 0.1, 1 and 10 μM or DMSO (control) was added to the culture medium. […]
For evaluation of the effects of Compound A on intracellular cAMP level, statistical differences between DMSO-treatment and Compound A treatment groups were analyzed with one-tailed Williams' test. For the evaluation of the effects of Compound A on mRNA expression levels, statistical differences between forskolin/TGF-β-treatment and Compound A treatment groups were analyzed with one-tailed Williams' test. To confirm the mRNA induction by TGF-β, mRNA expression levels between untreated and TGF-β-treated group were analyzed by Students t-test. […]

Structure (SMILES): C=C[C@@]1(C)CC(=O)[C@]2(O)[C@@]3(C)[C@@H](O)CCC(C)(C)[C@@H]3[C@H](O)[C@H](OC(C)=O)[C@@]2(C)O1 [forskolin, reference compound]
- effect on TGF-β-induced mRNA expression of PAI-1 [1]: mildly, but significantly reduced
- effect on TGF-β-induced mRNA expression of CTGF [2]: mildly, but significantly reduced
- effect on TGF-β-induced mRNA expression of type 1 collagen α1 chain [3]: significantly inhibited
- effect on TGF-β-induced mRNA expression of fibronectin (fibronectin mRNA): significantly inhibited
- effect on intracellular cAMP accumulation (human mesangial cells): mildly stimulated the intracellular cAMP accumulation
